Consider five sequences from patent US20210269772.

By UniProt entry, the sequences of proteins in these tests, tags left out. Residues count along the entry.
UniProt P01732, 22-235: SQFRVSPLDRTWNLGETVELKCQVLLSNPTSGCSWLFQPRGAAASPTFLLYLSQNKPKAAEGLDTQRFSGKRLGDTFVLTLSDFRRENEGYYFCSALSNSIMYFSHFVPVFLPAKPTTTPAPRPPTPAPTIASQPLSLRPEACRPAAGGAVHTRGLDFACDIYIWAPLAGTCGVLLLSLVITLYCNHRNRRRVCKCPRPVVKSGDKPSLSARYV
UniProt F7DXK3, entry or part of it: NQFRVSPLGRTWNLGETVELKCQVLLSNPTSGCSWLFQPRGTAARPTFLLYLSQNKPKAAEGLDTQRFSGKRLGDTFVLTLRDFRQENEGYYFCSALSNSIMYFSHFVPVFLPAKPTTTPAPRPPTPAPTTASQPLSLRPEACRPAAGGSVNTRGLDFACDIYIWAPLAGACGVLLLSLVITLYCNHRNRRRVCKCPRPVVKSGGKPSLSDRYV
UniProt P01731, 28-247: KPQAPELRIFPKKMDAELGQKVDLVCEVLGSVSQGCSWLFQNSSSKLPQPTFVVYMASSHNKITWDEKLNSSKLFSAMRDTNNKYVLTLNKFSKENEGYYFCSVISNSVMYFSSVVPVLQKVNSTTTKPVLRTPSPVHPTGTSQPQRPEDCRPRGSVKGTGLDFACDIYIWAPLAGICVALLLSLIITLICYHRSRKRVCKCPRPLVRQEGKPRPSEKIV

Where cells or extracts were used, other partners may take part. For some assays here: A negative result means that nothing was seen under these conditions. For some assays here: A weaker result is weaker than the reference pair of the same experiment. For some assays here: For at least one entry, the source does not settle the construct or the ends of the probe.

For series [1], the target named is CD8 alpha (CD8a) on CD8+ T cells / PBMC (Homo sapiens) (UniProt P01732). The experiment in a line: competition with a labelled probe. Conditions: 10 nM aptamer outcompeted by anti-CD8a RPA-T8 but not by anti-CD3; protein on the cell surface; label: 5'-FAM (cells), biotin (BLI); single-stranded DNA.
The target of series [2] is CD8 alpha (CD8a) transiently expressed on CD8- Jurkat cells (Homo sapiens) (UniProt P01732). The experiment in a line: flow cytometry. The following applies: 10 nM; binding specific to GFP+ cells; protein on the cell surface; protein details: CD8a-hnRNP-M-EGFP plasmid, Addgene 86054; label: 5'-FAM (cells), biotin (BLI); single-stranded DNA. (In flow cytometry, cells or beads pass a laser one at a time.)

Series [3] has as its target CD8 on CD3+CD8+ rhesus macaque PBMC (Macaca mulatta) (UniProt F7DXK3). The experiment in a line: flow cytometry. Conditions: 50 nM; protein on the cell surface; label: 5'-FAM (cells), biotin (BLI); single-stranded DNA.
For series [4], the target named is CD8 on CD3+CD8+ murine spleen T cells (Mus musculus) (UniProt P01731). The experiment in a line: flow cytometry. Conditions: 50 nM; protein on the cell surface; label: 5'-FAM (cells), biotin (BLI); single-stranded DNA.
The target in series [5] is CD8 alpha (CD8a) on CD8+ T cells / PBMC (Homo sapiens) (UniProt P01732). The experiment in a line: flow cytometry. Conditions: protein on the cell surface, single-stranded DNA.

Turning to “ATCCAGAGTGACGCAGCAACAGAGGTGTAGAAGTACACGTGAACAAGCTTGAAATTGTCTCTGACAGAGGTGGACACGGTGGCTTAGT [A3]”, the binding result is listed as “binds” in series [1], “binds” in series [2], “binds” in series [3] and “no binding” in series [4].

“ATCCAGAGTGACGCAGCACGCAGCACCCGTGGTAGTGTATCAGGGAGACACTACGTGATGCAGCTTGAAATGGACACGGTGGCTTAGT [A1]”: the binding result is given as “binds” in series [1], “binds” in series [2], “binds” in series [3] and “no binding” in series [4].

On to “ATCCAGAGTGACGCAGCAGCTCGATCGTATAGCCGTGACGCAGCTTGAAATGGGATCGCGTCCACAGTTTTGGACACGGTGGCTTAGT [A8]”, for which the binding result is given as “binds” in series [1], “binds” in series [2], “binds” in series [3] and “no binding” in series [4].

As for “CCAGAGTGACGCAGCAACAGAGGTGTAGAAGTACACGTGAACAAGCTTGAAATTGTCTCTGACAGAGGTGGACACGGTGGCTTTTAGT [A3t]”, the binding result in series [5] (iSp18 spacer, 5 nM on CD8+ T cells, released 90% by 100-fold complementary reversal agent SEQ 7, 10 min RT, label: 5'-biotin, variant of A3) is on record as “binds”.

As to “CTACAGCTTGCTATGCTCCCCTTGGGGTA [CD8Ap17s]”, in series [5] (3' iSp18 spacer, low binding in its published buffer conditions, compared with A3 / A3t, label: 3'-biotin), the binding result was “binds more weakly”.
